Measurements as given in paper PMC3901670.
These are yes or no findings as the source states them, for the method shown. Binding seen in cells or lysates may run through a third protein. Where a sequence is shown, tags or fusion partners need not be part of it.

Amino acid sequences for entries named in this document (tags omitted). A change or cut given only in a name is not applied to a line headed by its entry.
UniProt Q9BXM7: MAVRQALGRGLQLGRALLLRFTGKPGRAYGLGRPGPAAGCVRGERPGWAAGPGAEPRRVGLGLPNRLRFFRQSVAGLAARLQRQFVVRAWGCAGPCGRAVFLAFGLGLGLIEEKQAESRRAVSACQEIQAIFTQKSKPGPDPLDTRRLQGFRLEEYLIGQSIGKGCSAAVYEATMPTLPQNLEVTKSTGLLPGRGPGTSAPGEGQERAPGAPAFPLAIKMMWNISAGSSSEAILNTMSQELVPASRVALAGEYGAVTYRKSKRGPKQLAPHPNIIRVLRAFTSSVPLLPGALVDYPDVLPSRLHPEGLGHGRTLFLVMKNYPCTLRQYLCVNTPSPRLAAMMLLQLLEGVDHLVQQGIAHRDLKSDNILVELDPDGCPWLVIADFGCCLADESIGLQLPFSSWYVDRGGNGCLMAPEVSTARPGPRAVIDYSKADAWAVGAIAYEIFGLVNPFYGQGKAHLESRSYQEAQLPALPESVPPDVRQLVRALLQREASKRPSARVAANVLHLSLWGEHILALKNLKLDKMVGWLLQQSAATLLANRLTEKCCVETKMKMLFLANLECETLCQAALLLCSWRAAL

Biological target: GST-PINK1(1–140), mitochondrial targeting domain (human) (UniProt Q9BXM7)
Assay: condition: 50 µg of protein from the crude extract in 0.25 ml; pull-down; GST fusion from E. coli crude extract held on glutathione agarose beads and washed with PBS; incubated with 50 µg of protein from the supernatant of E. coli crude extract with His-PINK1 or His-BAG5 in 0.25 ml HNTG buffer (20 mM HEPES-KOH pH 7.5, 100 mM NaCl, 0.1% Triton X-100, 10% glycerol), 2 h at 4°C; immunoblot; only the target purified

binding: no binding
B1: His-BAG5 (protein, UniProt Q9UL15 1-447)
chain: MDMGNQHPSISRLQEIQKEVKSVEQQVIGFSGLSDDKNYKKLERILTKQLFEIDSVDTEGKGDIQQARKRAAQETERLLKELEQNANHPHRIEIQNIFEEAQSLVREKIVPFYNGGNCVTDEFEEGIQDIILRLTHVKTGGKISLRKARYHTLTKICAVQEIIEDCMKKQPSLPLSEDAHPSVAKINFVMCEVNKARGVLIALLMGVNNNETCRHLSCVLSGLIADLDALDVCGRTEIRNYRREVVEDINKLLKYLDLEEEADTTKAFDLRQNHSILKIEKVLKRMREIKNELLQAQNPSELYLSSKTELQGLIGQLDEVSLEKNPCIREARRRAVIEVQTLITYIDLKEALEKRKLFACEEHPSHKAVWNVLGNLSEIQGEVLSFDGNRTDKNYIRLEELLTKQLLALDAVDPQGEEKCKAARKQAVRLAQNILSYLDLKSDEWEY
